Test results taken from US10770169B2, “Method of providing a treatment to a subject based on a dynamic pathway map” (THE REGENTS OF THE UNIVERSITY OF CALIFORNIA, priority 2010, dated 2020).

System: panel of 55 breast cancer cell lines
Test: Cell growth inhibition assay (Cell Titer Glo, 72 h, 9 doses; GI50, TGI, LC50)
Format: cell-based
Details: Homo sapiens

**Q.** For `COc1cc2ncnc(Nc3ccc(F)c(Cl)c3)c2cc1OCCCN1CCOCC1` [Iressa], which GI50 (HCC202, HCC202 cell line, censored GI50 values) is on record?
**A.** 457 nM

**Q.** How did the GI50 (HCC202, cell line HCC202) turn out when `COc1cc2ncnc(Nc3ccc(F)c(Cl)c3)c2cc1OCCCN1CCOCC1` [Gefitinib] was run?
**A.** 457 nM
